Assay results from article PMC7449970.
No constants are given. Whether binding was seen depends on the method and setting. In cells and extracts the contact can be indirect. Some entries that bind do so weakly or less than the wild type. For part of these data: Sequences can lack the tags named with a protein.

Amino acid sequences for entries named in this document (tags omitted). Residues count along the entry.
UniProt P37173, residues 23-567: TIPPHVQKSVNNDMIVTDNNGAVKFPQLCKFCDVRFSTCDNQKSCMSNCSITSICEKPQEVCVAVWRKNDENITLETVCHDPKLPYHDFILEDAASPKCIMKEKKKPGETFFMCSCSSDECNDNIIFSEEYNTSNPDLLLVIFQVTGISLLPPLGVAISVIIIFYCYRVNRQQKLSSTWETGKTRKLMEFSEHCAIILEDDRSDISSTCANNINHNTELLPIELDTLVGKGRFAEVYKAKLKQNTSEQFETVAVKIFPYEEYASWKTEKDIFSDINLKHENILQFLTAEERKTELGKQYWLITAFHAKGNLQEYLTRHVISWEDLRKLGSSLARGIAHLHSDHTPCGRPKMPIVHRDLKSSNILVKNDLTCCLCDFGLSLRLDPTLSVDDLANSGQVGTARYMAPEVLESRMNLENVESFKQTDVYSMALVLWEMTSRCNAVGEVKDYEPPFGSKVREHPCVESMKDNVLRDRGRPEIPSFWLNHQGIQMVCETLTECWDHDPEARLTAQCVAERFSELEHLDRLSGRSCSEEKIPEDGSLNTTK
UniProt Q8NBS9, residues 33-432: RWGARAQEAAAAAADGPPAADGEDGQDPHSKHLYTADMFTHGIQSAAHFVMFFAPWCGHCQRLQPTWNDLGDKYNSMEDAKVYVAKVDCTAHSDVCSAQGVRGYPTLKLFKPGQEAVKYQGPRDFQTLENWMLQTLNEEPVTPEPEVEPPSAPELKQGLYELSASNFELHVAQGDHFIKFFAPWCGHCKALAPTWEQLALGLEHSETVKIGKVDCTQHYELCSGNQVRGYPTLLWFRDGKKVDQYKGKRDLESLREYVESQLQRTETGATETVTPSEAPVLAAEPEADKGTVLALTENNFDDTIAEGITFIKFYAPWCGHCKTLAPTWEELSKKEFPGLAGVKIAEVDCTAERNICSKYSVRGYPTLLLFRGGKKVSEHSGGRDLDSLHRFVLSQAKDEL

Tests used:
[1] = biological target: T1, human TGFBR1-Myc-Flag-tagged (human) (UniProt P36897); assay: co-IP; lysates of NIH-3T3 fibroblasts transfected with mRNAs for 4 h; IP with anti-Flag or mouse IgG isotype control on protein G magnetic beads, and IP of WT or mutant TXNDC5 (TXNDC5 or HA); immunoblot
T1 sequence: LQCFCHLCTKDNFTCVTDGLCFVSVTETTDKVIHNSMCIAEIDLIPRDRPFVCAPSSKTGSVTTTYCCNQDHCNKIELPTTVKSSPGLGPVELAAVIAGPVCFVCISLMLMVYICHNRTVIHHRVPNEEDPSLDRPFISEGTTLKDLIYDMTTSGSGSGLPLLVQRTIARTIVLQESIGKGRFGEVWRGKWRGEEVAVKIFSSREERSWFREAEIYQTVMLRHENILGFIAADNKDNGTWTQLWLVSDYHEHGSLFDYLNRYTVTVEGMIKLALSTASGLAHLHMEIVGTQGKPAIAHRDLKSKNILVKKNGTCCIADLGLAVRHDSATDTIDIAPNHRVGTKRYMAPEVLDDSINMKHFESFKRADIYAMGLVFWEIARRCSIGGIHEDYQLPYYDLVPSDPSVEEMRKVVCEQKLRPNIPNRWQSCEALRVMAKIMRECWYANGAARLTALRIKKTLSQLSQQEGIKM

[2] = biological target: T2, TGFβ receptor 1 (TGFBR1), endogenous in human pulmonary fibroblasts (human (endogenous in HPF)) (UniProt P36897); assay: proximity ligation; Duolink in situ PLA on fixed, permeabilised HPF; rabbit anti-TXNDC5 with mouse anti-TGFBR1 or mouse anti-TGFBR2; slides without primary antibodies as negative control
T2 sequence: T1 sequence

[3] = biological target: TGFβ receptor 2 (TGFBR2), endogenous in human pulmonary fibroblasts (human (endogenous in HPF)) (UniProt P37173); assay: as above

| binding [1] | binding [2] | binding [3] | Substance |
| --- | --- | --- | --- |
| binds | – | – | Human WT TXNDC5 (mRNA transfected into NIH-3T3 fibroblasts) (from UniProt Q8NBS9 33-432) |
| – | binds | no binding | thioredoxin domain containing 5 (TXNDC5), endogenous in human pulmonary fibroblasts (from UniProt Q8NBS9 33-432) |
